This assay has as its target T1, Saccharomyces cerevisiae Rad54, yeast two-hybrid bait (pGBDUC1/RAD54) (S. cerevisiae) (UniProt P32863).
T1 sequence: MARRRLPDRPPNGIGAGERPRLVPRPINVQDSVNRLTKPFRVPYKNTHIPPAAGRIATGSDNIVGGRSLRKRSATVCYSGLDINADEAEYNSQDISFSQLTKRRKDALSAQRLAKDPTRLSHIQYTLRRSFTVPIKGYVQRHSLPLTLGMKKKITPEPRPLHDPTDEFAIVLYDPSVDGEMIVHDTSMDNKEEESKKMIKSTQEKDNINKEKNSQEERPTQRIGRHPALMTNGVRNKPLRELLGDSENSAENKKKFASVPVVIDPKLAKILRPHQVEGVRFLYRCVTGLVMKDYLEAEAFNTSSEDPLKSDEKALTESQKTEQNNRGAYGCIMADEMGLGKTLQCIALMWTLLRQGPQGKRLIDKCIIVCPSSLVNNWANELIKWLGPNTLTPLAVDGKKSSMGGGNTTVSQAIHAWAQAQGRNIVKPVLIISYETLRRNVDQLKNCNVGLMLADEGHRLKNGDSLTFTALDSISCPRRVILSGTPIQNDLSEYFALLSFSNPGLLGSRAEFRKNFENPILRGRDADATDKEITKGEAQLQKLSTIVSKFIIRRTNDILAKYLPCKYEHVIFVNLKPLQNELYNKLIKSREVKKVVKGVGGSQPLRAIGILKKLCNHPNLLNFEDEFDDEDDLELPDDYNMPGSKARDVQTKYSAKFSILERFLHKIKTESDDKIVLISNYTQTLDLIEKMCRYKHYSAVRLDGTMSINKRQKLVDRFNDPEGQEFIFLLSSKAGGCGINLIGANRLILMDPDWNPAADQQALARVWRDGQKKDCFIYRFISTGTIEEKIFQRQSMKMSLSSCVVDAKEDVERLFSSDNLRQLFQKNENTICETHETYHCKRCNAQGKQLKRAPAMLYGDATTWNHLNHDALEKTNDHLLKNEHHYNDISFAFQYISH
The experiment in a line: two-hybrid; prey in pGADC1, bait in pGBDUC1, strain pJ694a; serial dilutions spotted on SC-Ura-Leu and SC-Ura-Leu-Ade, 30°C, 3 to 4 days.

Chains of the proteins cited; added tags and fusions are not shown. Lines headed by an entry give the natural chain unless they say otherwise; changes in a name come on top.
UniProt P25454: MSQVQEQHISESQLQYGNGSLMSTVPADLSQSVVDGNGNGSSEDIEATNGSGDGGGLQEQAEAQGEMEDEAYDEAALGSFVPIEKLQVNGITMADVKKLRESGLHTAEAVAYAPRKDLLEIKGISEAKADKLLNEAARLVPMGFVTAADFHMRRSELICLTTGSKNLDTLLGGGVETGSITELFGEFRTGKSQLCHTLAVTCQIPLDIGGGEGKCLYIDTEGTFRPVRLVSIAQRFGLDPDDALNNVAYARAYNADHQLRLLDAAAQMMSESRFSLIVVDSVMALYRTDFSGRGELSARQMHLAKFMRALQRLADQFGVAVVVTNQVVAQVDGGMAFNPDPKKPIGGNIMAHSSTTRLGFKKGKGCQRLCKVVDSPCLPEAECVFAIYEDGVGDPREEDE

No constants are given. Whether binding was seen depends on the method and setting. Some entries that bind do so weakly or less than the wild type. Tags and fused reporters may be left off the sequences shown.

The source of these data is PMC6429042.

Regarding “Saccharomyces cerevisiae Rad51 E108L, yeast two-hybrid fusions (pGADC1/E108L-rad51 prey and pGBDUC1/E108L-rad51 bait) (from UniProt P25454 1-400)”, the binding result is listed as “binds”. In the case of “Saccharomyces cerevisiae Rad51, wild type, yeast two-hybrid fusions (pGADC1/RAD51 prey and pGBDUC1/RAD51 bait) (from UniProt P25454 1-400)” it was “binds”.
